The text below walks through data of US4288609A, “Quaternary ammonium derivatives of adamantane with antimicrobic activity” (priority 1976, dated 1981).

The subject of test [1] is Trich. Vaginalis ISM 66/22. The test can be described thus: MIC protozoa, Trichomonas vaginalis (Table 2). Format: cell-based. The protocol:
(§1) The method for evaluating the activity in vitro against bacteria, fungi and protozoa consists in introducing calculated quantities of the substance, the activity of which it is desired to test, into culture media already inoculated with a predetermined number of test germs.
(§2) After 24 or 48 hours of incubation at 30° or 37° C., according to the micro-organism being tested, it is possible to evaluate the growth of the same in the culture broth; in this manner the minimum concentration (M.I.C.) which inhibits the growth of the micro-organisms in vitro is determined.
(§3) Inoculation with Trichomonas vaginalis and Trichomonas foetus, obtained from cultures transplanted every other day to make them lively, was effected in a ratio of 3.5% of the volume of medium used.
(§4) For the fungi Sabourand broth was used as a culture medium, whilst for the protozoa Kupferberg Trichomonas broth with 5% of horse serum was used.

Test [2] relates to Nicrosporum Canis ATCC 11621. The test can be described thus: MIC mildews, Microsporum canis (Table 2). The settings on record: Sabourand broth. It counts as cell-based. How it is done:
as §1, §2
(§5) Inoculation with Trichophyton mentagrophytes and Microsporum canis was effected in a ratio of 1% of the volume of medium used.
as §4

Test [3] concerns Trych. Mentagr. 1st.Pastuer. The test can be described thus: MIC mildews, Trichophyton mentagrophytes (Table 2). It counts as cell-based. Particulars: Sabourand broth. The protocol: as §1, §2
In order to confirm the wide spectrum of action of the compounds in question, their activity was also assessed against fungi (both mildews and yeasts) and protozoa, in this case also taking cetyl pyridine chloride as the standard substance.
as §5
For the fungi Sabourand broth was used as a culture medium, whilst for the protozoa Kupferberg Trichomonas broth with 5% of horse serum was used. The results (MIC values in γ/ml) are recorded in Table 2.

In another test the test system is Candida Albic. SKF 2270. The test can be described thus: MIC yeasts, Candida albicans (Table 2). Format: cell-based. Particulars: Sabourand broth. How it is done:
as §1, §2
(§6) Inoculation with Candida albicans or Candida pseudotropicalis was made by diluting cultures grown for 24 h at 30° C. (cellular density inoculated 10^3 /ml).
as §4

A further test concerns Candida albicans. The test can be described thus: Activity upon vaginal candidiasis in mice (Table 7). It counts as in vivo, female Swiss mice (Charles River CD1). The settings on record: 3% by weight. How it is done:
The treatment groups consist each of 8 female Swiss mice (Charles River CD1) of average weight 20 g. The animals are infected with 0.025 ml of a 24 hour culture of Candida albicans, equal to 10^6 cellules.
0.025 ml of a suspension in lanoline of the compound to be tested, at the desired concentration, are applied locally twice a day for a week, the first treatment being started five hours after infection.
The control group is treated with the lanoline alone in the same way. On the eighth day vaginal washings are carried out with 0.025 ml of sterile physiological solution, and the liquid is sown in Petri dishes containing Bacto Biggy Agon Difco as a selective growing medium for the Candida.
After 48 hours of incubation of the dishes at 30° C. a count is taken of the colonies which have grown. Assessment of the activity is quantized using the indices listed here below:
The results are expressed as percentages of the average index of seriousness of the infection A.D.I. (Average Degree of Infection) in the animals treated with respect to the animals in the control group.
The substances under examination were tested at concentrations of 5 and 3% by weight.

A further test relates to Trich. Foetus ISM 66/23. The test can be described thus: MIC protozoa, Trichomonas foetus (Table 2). It counts as cell-based. The settings on record: Tritrichomonas foetus. The protocol: as §1, §2, §3, §4
Test [4] relates to Candida Pseudotrop. ATCC 2512. The test can be described thus: MIC yeasts, Candida pseudotropicalis (Table 2). Format: cell-based. Particulars: Sabourand broth. How it is done:
as §1, §2, §6, §4

Usually MIC stands for the lowest concentration found to suppress growth. With `CCCCCCCCCCCCCCCC[n+]1ccccc1` [Cetyl pyridine chloride, cetyl pyridine chloride, reference compound], the MIC in test [1] turned out to be 10 µg/mL; in test [2] (ATCC11621, +10% serum), 50 µg/mL; in test [2] (ATCC11621, without serum), 0.5 µg/mL; in test [3] (+10% serum) it was 30 µg/mL; in test [3] (without serum), 0.5 µg/mL; in the test on Candida Albic. SKF 2270 (+10% serum), 100 µg/mL. Moreover, the minimum inhibitory concentration (MIC) against Candida Albic. SKF 2270 (without serum) was found to be 5 µg/mL; against Trich. Foetus ISM 66/23 it was 5 µg/mL; in test [4] (ATCC2512, +10% serum) it was 100 µg/mL; in test [4] (ATCC2512, without serum) it was 0.5 µg/mL. For the same molecule, the “average proliferation index (A.D.I)” value with Candida albicans amounted to 2.00.
